The target of the test is T1, RPGR, wild-type mouse retina (mouse (endogenous in mouse retina)) (UniProt Q9R0X5).
T1 sequence: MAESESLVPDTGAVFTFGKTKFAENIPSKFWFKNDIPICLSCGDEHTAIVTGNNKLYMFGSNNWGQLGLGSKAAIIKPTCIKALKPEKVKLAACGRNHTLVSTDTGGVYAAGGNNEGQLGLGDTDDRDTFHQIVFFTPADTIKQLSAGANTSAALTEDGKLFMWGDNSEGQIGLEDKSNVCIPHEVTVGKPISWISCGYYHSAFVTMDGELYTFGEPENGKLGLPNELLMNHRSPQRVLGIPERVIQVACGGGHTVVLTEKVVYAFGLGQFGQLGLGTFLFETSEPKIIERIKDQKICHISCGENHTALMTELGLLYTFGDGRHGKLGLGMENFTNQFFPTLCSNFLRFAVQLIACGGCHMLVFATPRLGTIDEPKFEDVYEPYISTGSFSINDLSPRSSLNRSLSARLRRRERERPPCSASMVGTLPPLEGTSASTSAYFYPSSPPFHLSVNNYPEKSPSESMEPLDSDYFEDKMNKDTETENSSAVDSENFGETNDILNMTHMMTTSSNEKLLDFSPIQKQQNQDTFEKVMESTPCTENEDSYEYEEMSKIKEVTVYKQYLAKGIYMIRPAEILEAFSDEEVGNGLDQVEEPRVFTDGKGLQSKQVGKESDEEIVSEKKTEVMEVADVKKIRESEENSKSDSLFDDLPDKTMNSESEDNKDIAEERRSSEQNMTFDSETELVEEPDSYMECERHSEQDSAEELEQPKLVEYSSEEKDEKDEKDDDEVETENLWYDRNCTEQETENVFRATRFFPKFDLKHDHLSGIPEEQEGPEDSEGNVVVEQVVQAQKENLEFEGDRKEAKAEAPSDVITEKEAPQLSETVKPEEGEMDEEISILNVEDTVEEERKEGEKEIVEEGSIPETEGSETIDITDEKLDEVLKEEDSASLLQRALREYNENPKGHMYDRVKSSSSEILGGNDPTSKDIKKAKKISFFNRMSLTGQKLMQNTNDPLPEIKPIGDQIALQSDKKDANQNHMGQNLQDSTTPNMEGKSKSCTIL
Put plainly: co-IP; protein lysates from wt or Rpgr-ko mouse retinas, IP with RPGR antibody, immunoblot with NPHP4 antibody.

Results are given in words; binding and its absence hold for the method and conditions named. In cells and extracts the contact can be indirect. Some results given as binding are weak or reduced against the parent protein; the word gives no strength.

Consider one molecule from paper PMC2905641.

B1: NPHP4, mouse retina (protein, UniProt P59240 1-1425)
chain: MGDWHRAFTQNTLVPPHPQRARQLGKESTAFQCILKWLDGPLIKQGILDMLSELECHLRVTLFDVTYKHFFGRTWKTTVKPTNQPSKQPPRITFNEPLYFHTTLSHPSIVAVVEVVTEGRKRDGTLQLLSCGFGILRIFGNKPESPTSAAQDKRLRLYHGTPRALLHPLLQDPIEQNKFMRLMENCSLQYTLKPHPPLEPAFHLLPENLLVSGFQQIPGLLPPHGDTGDALRKPRFQKPTTWHLDDLFFTLYPSLEKFEEELVQLLISDREGVGLLDSGTLEVLERRLHVCVHNGLGFVQRPQVVVLVPEMDVALTRSASFSRKISASSKNSSGNQALVLRSHLRLPEMVSHPAFAIVFQLEYVFNSPSGADGGASSPTSISSVACMHMVRWAVWNPDLEVGPGKVTLPLQGGVQQNPSRCLVYKVPSASMSSEEVKQVESGTIQFQFSLSSDGPTEHANGPRVGRRSSRKMPASPSGTPAPAARDLAATQDSPVGPGLSLSQLTASPLSPALQSSSKPPLQPPDSSQSPEGPQLQAESVLESRVSHLEADLSQPASLQGTPAVEHLQELPFTPLHAPIVVGAQTRSSRSQLSRAAMVLLQSSGFPEILDASQQPVEAVNPIDPVRFNPQKEESDCLRGNEIVLQFLAFSRAAQDCPGTPWPQTVYFTFQFYRFPPETTPRLQLVKLDGTGKSGSGSLSHILVPINKDGSFDAGSPGLQLRYMVDPGFLKPGEQRWFAHYLAAQTLQVDVWDGDSLLLIGSAGVQMKHLLRQGRPAVQVSHELEVVATEYEQEMMAVSGDVAGFGSVKPIGVHTVVKGRLHLTLANVGHACEPRARGSNLLPPSRSRVISNDGASFFSGGSLLIPGGPKRKRVVQAQRLADVDSELAAMLLTHTRAGQGPQAAGQEADAVHKRKLERMRLVRLQEAGGDSDSRRISLLAQHSVRAQHSRDLQVIDAYRERTKAESIAGVLSQAITTHHTLYATLGTAEFFEFALKNPHNTQHTVAIEIDSPELSIILDSQEWRYFKEATGLHTPLEEDMFHLRGSLAPQLYLRPRETAHIPLKFQSFSVGPLAPTQAPAEVITEKDAESGPLWKCSAMPTKHAKVLFRVETGQLIAVLCLTVEPQPHVVDQVFRFYHPELTFLKKAIRLPPWHTLPGAPVGMPGEDPPVHVRCSDPNVICEAQNVGPGEPRDVFLKVASGPSPEIKDFFVVIYADRWLAVPVQTWQVCLHSLQRVDVSCVAGQLTRLSLVLRGTQTVRKVRAFTSHPQELKTDPAGVFVLPPHGVQDLHVGVRPRRAGSRFVHLNLVDIDYHQLVASWLVCLSCRQPLISKAFEITMAAGDEKGTNKRITYTNPYPSRRTYRLHSDRPELLRFKEDSFQVAGGETYTIGLRFLPSGSAGQEEILIYINDHEDKNEETFCVKVLYQ
With B1, the binding result is given as “binds”.
